Measured values taken from PMC10147662, “Structural basis for the ligand promiscuity of the neofunctionalized, carotenoid-binding fasciclin domain protein AstaP” (Communications Biology, 2023).
Results are given in words; binding and its absence hold for the method and conditions named. Blank lines part the entries; values can stand above or below the binder they belong to.

Assays:
[1] = target: AstaP-orange1 (AstaPo1), mature protein, residues 21-223 (Coelastrella astaxanthina sp. Ki-4) (UniProt S6BQ14); test: SEC; analytical SEC with diode-array detection, Superdex 200 Increase 5/150, 20 mM Tris-HCl pH 7.5, 150 mM NaCl, 3 mM NaN3, 5 mM βME; apparent Mw from column calibration; both purified
[2] = target: SynAstaP, mature form (no signal peptide), residues 27-180 (Synechocystis sp. PCC 6803) (UniProt P74615); test: as above

binding [1]: no binding
B1: AstaP-orange1 (AstaPo1), mature protein, residues 21-223 (protein, UniProt S6BQ14 21-223)
chain: GPHMATPKANATTAKPASTTSTPVYATLSNAVTAGAAAPQLTTLFAAVRAANVTGALTANTTWTILAPTNDAFAKRLAKLNLTADAVLKNKDLLVKILSYHVIPSGAVYSKALKDNATVATALKDASVTVRLYQGKVMFKGPVNKAQVTVADIKAGGSVIHVINDVLLPPGVVSDAVAKQWKAEWEAMKAEKKVAPKATTGRRFLLF

binding [2]: no binding (tested: 500 μM)
B2: SynAstaP, mature form (no signal peptide), residues 27-180 (protein, UniProt P74615 27-180)
chain: GPHMEMETTEKSAVVSQAATDSAMTIVEVAAGNETFSTLVAAVKAADLVEALSAEGPFTVFAPTNDAFAALPAGTVESLLLPENKDKLVKILTYHVVPGKITAAQVQSGEVASLAGEALTFKVKDGKVKVNKATVISADVDASNGVIHVIDQVILPPM
